Measured values reported in the supplement of paper PMC12282887.
These are raw signals, not scaled to a control.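 For antimicrobials the highest concentration approximated the MIC. Most other compounds topped out at 500 µM, and known inducer-like compounds reached up to 1 mM. Inocula for deletion strains were tenfold smaller, and any well growing below 10% of the overall median was considered non-growing.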

Test system: Escherichia coli BW25113
Experiment: growth (OD600 area under curve, 8 h) (OD600 x h); higher = more growth
Experimental: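 E. coli BW25113 reporter strains (wild type, ΔmarA, ΔsoxS, Δrob, each carrying one of 8 lux reporter plasmids) were grown in 40 µl LB in 384-well plates at 37°C, 800 rpm, with each compound at 4 two-fold concentrations, in biological duplicates. Growth is the baseline-corrected OD600 area under the curve over 8 h (0-8 h WT, 1-9 h deletion strains).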

C[C@@H]1O[C@@H]1P(=O)(O)O [Fosfomycin]
growth
Details | reporter plasmid: EVC | reporter plasmid: acrABp | reporter plasmid: marRABp | reporter plasmid: micFp | reporter plasmid: ompFp | reporter plasmid: robp | reporter plasmid: soxSp | reporter plasmid: tolCp
0.011 µg/ml, genetic background: wild type | 3.04 | 2.86 | 3.33 | 3.12 | 3.18 | 3.396 | 3.223 | 3.2729
0.011 µg/ml, genetic background: ΔmarA | 3.13 | 4.14 | 3.73 | 3.33 | 3.59 | 3.82 | 2.88 | 2.87
0.011 µg/ml, genetic background: Δrob | 2.91 | 3.23 | 3.4 | 3.26 | 2.83 | 3.02 | 3.05 | 3.182
0.011 µg/ml, genetic background: ΔsoxS | 3.29 | 3.46 | 3.44 | 3.04 | 3.36 | 3.37 | 3.38 | 3.17
0.023 µg/ml, genetic background: wild type | 2.946 | 2.78 | 3.36 | 3.13 | 3.06 | 3.11 | 3.07 | 3.18
0.023 µg/ml, genetic background: ΔmarA | 3.11 | 3.98 | 3.697 | 3.31 | 3.54 | 3.92 | 2.98 | 3.03
0.023 µg/ml, genetic background: Δrob | 3.15 | 3.2 | 3.42 | 3.31 | 2.85 | 3.1 | 3.01 | 3.33
0.023 µg/ml, genetic background: ΔsoxS | 3.18 | 3.52 | 3.4 | 2.9 | 3.36 | 3.16 | 3.42 | 3.23
0.046 µg/ml, genetic background: wild type | 2.69 | 3.09 | 3.37 | 3.31 | 3.55 | 3.62 | 3.07 | 3.31
0.046 µg/ml, genetic background: ΔmarA | 3.24 | 4.12 | 3.95 | 3.37 | 3.81 | 4.16 | 3.04 | 3.05
0.046 µg/ml, genetic background: Δrob | 3.13 | 3.26 | 3.63 | 3.36 | 3.03 | 3.05 | 2.87 | 3.15
0.046 µg/ml, genetic background: ΔsoxS | 3.4111 | 3.5 | 3.53 | 3.17 | 3.45 | 3.27 | 3.5 | 3.26
0.091 µg/ml, genetic background: wild type | 2.2 | 1.39 | 1.73 | 2.29 | 1.63 | 2.21 | 2.29 | 2.82
0.091 µg/ml, genetic background: ΔmarA | 2.55 | 1.91 | 2.26 | 2.93 | 1.89 | 2.82 | 2.24 | 2.55
0.091 µg/ml, genetic background: Δrob | 2.77 | 1.83 | 2.41 | 2.71 | 1.69 | 1.94 | 2.32 | 3
0.091 µg/ml, genetic background: ΔsoxS | 3.021 | 2.15 | 1.69 | 2.5 | 1.67 | 1.6 | 2.44 | 3.065

CC(=O)O[C@H]1C[C@@]2(C)[C@@H](C[C@@H](O)[C@H]3[C@@]4(C)CC[C@@H](O)[C@@H](C)[C@@H]4CC[C@@]32C)/C1=C(\CCC=C(C)C)C(=O)O [Fusidic acid]
growth
Details | reporter plasmid: EVC | reporter plasmid: acrABp | reporter plasmid: marRABp | reporter plasmid: micFp | reporter plasmid: ompFp | reporter plasmid: robp | reporter plasmid: soxSp | reporter plasmid: tolCp
13.5 µg/ml, genetic background: wild type | 2.94 | 3.31 | 3.363 | 3.09 | 3.23 | 3.28 | 2.97 | 3.02
13.5 µg/ml, genetic background: ΔmarA | 3.34 | 4.39 | 3.67 | 3.27 | 3.55 | 3.96 | 3.11 | 2.98
13.5 µg/ml, genetic background: Δrob | 3 | 3.07 | 3.47 | 3.02 | 2.79 | 2.73 | 2.96 | 3.146
13.5 µg/ml, genetic background: ΔsoxS | 3.25 | 3.25 | 3.26 | 2.91 | 3.25 | 3.46 | 3.17 | 3.05
26.9 µg/ml, genetic background: wild type | 2.87 | 3.2 | 3.22 | 2.97 | 3.14 | 3.384 | 2.93 | 3.02
26.9 µg/ml, genetic background: ΔmarA | 3.05 | 4.16 | 3.61 | 3.07 | 3.27 | 3.74 | 2.91 | 2.76
26.9 µg/ml, genetic background: Δrob | 2.97 | 3.097 | 3.28 | 3.09 | 2.63 | 2.54 | 2.86 | 3.12
26.9 µg/ml, genetic background: ΔsoxS | 3.09 | 3.17 | 3.2 | 2.85 | 3.17 | 3.02 | 3.18 | 3.02
53.9 µg/ml, genetic background: wild type | 2.54 | 2.95 | 3.09 | 2.99 | 3.07 | 3.12 | 2.973 | 2.99
53.9 µg/ml, genetic background: ΔmarA | 2.9 | 3.7 | 3.33 | 2.96 | 3.2 | 3.41 | 3 | 2.51
53.9 µg/ml, genetic background: Δrob | 2.92 | 2.86 | 2.97 | 2.76 | 2.4 | 2.28 | 2.91 | 2.79
53.9 µg/ml, genetic background: ΔsoxS | 3.01 | 2.9 | 2.97 | 2.7 | 2.91 | 3.1 | 2.95 | 2.79
107.7 µg/ml, genetic background: wild type | 1.98 | 1.92 | 1.81 | 2.14 | 1.9 | 1.72 | 2.51 | 2.22
107.7 µg/ml, genetic background: ΔmarA | 1.94 | 2.04 | 1.35 | 1.73 | 1.27 | 2.18 | 2.52 | 1.554
107.7 µg/ml, genetic background: Δrob | 1.99 | 0.91 | 1.29 | 1.67 | 0.89 | 0.615 | 2.3 | 1.82
107.7 µg/ml, genetic background: ΔsoxS | 2.17 | 1.09 | 1.33 | 1.57 | 1 | 0.52 | 1.73 | 2.03

C[C@]12CCC(=O)C=C1CC[C@@H]1[C@@H]2[C@@H](O)C[C@@]2(C)[C@H]1CC[C@]2(O)C(=O)CO [Hydrocortisone]
growth
Details | reporter plasmid: EVC | reporter plasmid: acrABp | reporter plasmid: marRABp | reporter plasmid: micFp | reporter plasmid: ompFp | reporter plasmid: robp | reporter plasmid: soxSp | reporter plasmid: tolCp
22.7 µg/ml, genetic background: wild type | 3.41 | 3.5 | 3.5 | 3.26 | 3.27 | 3.539 | 3.33 | 3.31
22.7 µg/ml, genetic background: ΔmarA | 3.96 | 4.73 | 4.25 | 3.83 | 3.87 | 4.55 | 3.82 | 3.76
22.7 µg/ml, genetic background: Δrob | 3.27 | 3.27 | 3.68 | 3.48 | 2.99 | 3.11 | 3.34 | 3.61
22.7 µg/ml, genetic background: ΔsoxS | 3.61 | 3.79 | 3.51 | 3.4 | 3.43 | 3.67 | 3.63 | 3.63
45.3 µg/ml, genetic background: wild type | 3.178 | 3.48 | 3.496 | 3.16 | 3.23 | 3.409 | 3.08 | 3.19
45.3 µg/ml, genetic background: ΔmarA | 3.61 | 4.48 | 4.09 | 3.63 | 3.71 | 4.31 | 3.49 | 3.63
45.3 µg/ml, genetic background: Δrob | 3.27 | 3.03 | 3.48 | 3.27 | 2.79 | 2.68 | 3.19 | 3.41
45.3 µg/ml, genetic background: ΔsoxS | 3.482 | 3.63 | 3.29 | 3.04 | 3.29 | 3.23 | 3.47 | 3.4
90.6 µg/ml, genetic background: wild type | 3.262 | 3.25 | 3.44 | 3.19 | 3.23 | 3.57 | 3.18 | 3.23
90.6 µg/ml, genetic background: ΔmarA | 3.59 | 4.17 | 4.12 | 3.73 | 3.78 | 4.29 | 3.58 | 3.6042
90.6 µg/ml, genetic background: Δrob | 3.32 | 3.48 | 3.6 | 3.32 | 2.94 | 3.16 | 3.11 | 3.4
90.6 µg/ml, genetic background: ΔsoxS | 3.47 | 3.68 | 3.65 | 3.16 | 3.3 | 3.54 | 3.47 | 3.421
181.2 µg/ml, genetic background: wild type | 3.1 | 3.24 | 3.27 | 3.07 | 3.4 | 3.45 | 3.15 | 3.18
181.2 µg/ml, genetic background: ΔmarA | 3.39 | 4.34 | 3.88 | 3.57 | 3.67 | 4.24 | 3.39 | 3.38
181.2 µg/ml, genetic background: Δrob | 3.3 | 3.1 | 3.47 | 3.27 | 2.91 | 2.91 | 3.04 | 3.26
181.2 µg/ml, genetic background: ΔsoxS | 3.38 | 3.56 | 3.39 | 3.2 | 3.09 | 3.22 | 3.32 | 3.35

C[C@@H](O)[C@H]1C(=O)N2C(C(=O)O)=C(SCCNC=N)C[C@H]12 [Imipenem]
growth
Details | reporter plasmid: EVC | reporter plasmid: acrABp | reporter plasmid: marRABp | reporter plasmid: micFp | reporter plasmid: ompFp | reporter plasmid: robp | reporter plasmid: soxSp | reporter plasmid: tolCp
0.02 µg/ml, genetic background: wild type | 2.9 | 2.86 | 3.22 | 3.22 | 2.92 | 3.2 | 3.01 | 3.15
0.02 µg/ml, genetic background: ΔmarA | 3.58 | 4.3 | 3.76 | 3.4 | 3.48 | 3.75 | 3.17 | 3.03
0.02 µg/ml, genetic background: Δrob | 2.82 | 2.75 | 3.4 | 3.27 | 2.76 | 2.65 | 3.01 | 3.3
0.02 µg/ml, genetic background: ΔsoxS | 3.12 | 3.17 | 3.19 | 2.6 | 2.8 | 2.87 | 3.09 | 2.96
0.04 µg/ml, genetic background: wild type | 2.9 | 2.82 | 3.246 | 3.21 | 2.89 | 3.12 | 2.99 | 3.09
0.04 µg/ml, genetic background: ΔmarA | 3.5 | 4.22 | 3.7 | 3.5 | 3.63 | 4.07 | 3.05 | 3.13
0.04 µg/ml, genetic background: Δrob | 2.78 | 2.67 | 3.55 | 3.29 | 2.58 | 2.78 | 2.72 | 3.09
0.04 µg/ml, genetic background: ΔsoxS | 2.94 | 2.9 | 3.2 | 2.6 | 2.66 | 2.91 | 3 | 2.86
0.079 µg/ml, genetic background: wild type | 2.91 | 2.8 | 3.357 | 3.24 | 3.06 | 3.28 | 3.071 | 3.2
0.079 µg/ml, genetic background: ΔmarA | 3.48 | 4.3 | 3.91 | 3.62 | 3.72 | 3.9 | 3.22 | 3.12
0.079 µg/ml, genetic background: Δrob | 2.62 | 2.9 | 3.55 | 3.21 | 2.72 | 2.5 | 3.02 | 3.15
0.079 µg/ml, genetic background: ΔsoxS | 3 | 3.12 | 3.15 | 2.669 | 2.59 | 2.88 | 2.89 | 3.03
0.16 µg/ml, genetic background: wild type | 2.78 | 2.91 | 3.27 | 2.93 | 2.82 | 3.03 | 2.999 | 2.98
0.16 µg/ml, genetic background: ΔmarA | 3.35 | 4 | 3.71 | 3.31 | 3.48 | 3.88 | 2.88 | 3.06
0.16 µg/ml, genetic background: Δrob | 2.86 | 2.607 | 3.26 | 2.93 | 2.6 | 2.44 | 2.84 | 3.02
0.16 µg/ml, genetic background: ΔsoxS | 2.78 | 2.71 | 2.99 | 2.15 | 2.5 | 2.73 | 2.74 | 2.91
